Data as given in PubChem BioAssay AID1053208 (Peter MacCallum Cancer Centre, 2014)
Purpose: 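Genes whose silencing cuts survival of bone tumour cells only with doxorubicin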 (primary screen). Cells: mouse osteosarcoma cells, early-passage culture from an engineered mouse model of fibroblastic bone tumour. Reagent: siRNA pool against mouse genes, 40 nM. Duration: about 120 h (48 h before drug, then 72 h with drug). Conditions: doxorubicin 100 nM for 72 h, roughly 30-40% inhibitory dose. Detection: 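Luminescent ATP signal taken as viability with or without 100 nM doxorubicin for 72 h; mean of two wells set against non-targeting siRNA and turned into robust z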. Direction: viability z-score with doxorubicin: higher = more viable cells under doxorubicin; viability z-score without drug: higher = more viable cells with knock-down alone. Rule for the call: 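Called active if knock-down leaves viability unchanged without drug (z within -2 to 2) but lowers it with doxorubicin (z at or under -2)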.
This is one part, drawn at random, of about 17,000 reagents. 788 of all reagents (4.7%) count as active. 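Calls rest on z-score classes alone; an extra cut-off of viability at most 70% of control was not applied to them.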 Unmarked entries are inactive. Not all columns of the deposit are shown. No sequences are given here.

The first 2 records as a preview:
target gene | combined z-score class | viability z-score with doxorubicin | viability z-score without drug
Spock3 (GeneID 72902) | no change with or without drug | 0.22 | 0.17
Vcf1 (GeneID 28081) | no change with or without drug | -0.22 | 0.34

Results, from the start:
target gene | combined z-score class | viability z-score with doxorubicin | viability z-score without drug
Spock3 (GeneID 72902) | no change with or without drug | 0.22 | 0.17
Vcf1 (GeneID 28081) | no change with or without drug | -0.22 | 0.34
Ep300 (GeneID 328572) | no change with or without drug | -0.45 | 1.52
Zfyve9 (GeneID 230597) | no change with or without drug | 0.22 | 0.51
Cdx4 (GeneID 12592) | no change with or without drug | 0.22 | 1.01
Tspyl3 (GeneID 241732) | no change with or without drug | 0.67 | 0.51
Sp3 (GeneID 20687) | no change with or without drug | 0.9 | 0.34
Psmg1 (GeneID 56088) | no change with or without drug | 0.67 | 0.51
Mtrfr (GeneID 72650) | no change with or without drug | 0.22 | 0.17
2510039O18Rik (GeneID 77034) | no change with or without drug | 0.9 | 0.84
Klf2 (GeneID 16598) | no change with or without drug | -0.67 | -0.17
Rfk (GeneID 54391) | no change with or without drug | 0.45 | 1.52
Vmn1r227 (GeneID 171229) | no change with or without drug | -0.11 | -0.51
Dclk1 (GeneID 13175) | no change with or without drug | 0.9 | -0.34
Ifna11 (GeneID 15964) | high cell count with doxorubicin only | 2.36 | 1.85
Rhob (GeneID 11852) | no change with or without drug | 1.12 | 1.18
Lin37 (GeneID 75660) | no change with or without drug | 0.11 | 0.51
Serping1 (GeneID 12258) | high cell count with and without drug | 2.59 | 2.36
P2ry14 (GeneID 140795) | no change with or without drug | 1.12 | 0
Inpp5j (GeneID 170835) | no change with or without drug | 0.34 | -0.67
Rho (GeneID 212541) | no change with or without drug | 0.45 | -1.01
Btnl9 (GeneID 237754) | no change with or without drug | -1.24 | 0.51
H2-DMa (GeneID 14998) | no change with or without drug | 0.67 | -0.17
Akap3 (GeneID 11642) | no change with or without drug | 0 | -1.69
Zfp422 (GeneID 67255) | no change with or without drug | 1.35 | 1.52
Cdc42se1 (GeneID 57912) | no change with or without drug | 0 | 0.34
Scel (GeneID 64929) | no change with or without drug | 1.91 | 1.85
Ctf1 (GeneID 13019) | no change with or without drug | 0.22 | -1.18
Chl1 (GeneID 12661) | no change with or without drug | -0.11 | -0.51
Ube4a (GeneID 140630) | no change with or without drug | 0.67 | -0.17
Abcd2 (GeneID 26874) | no change with or without drug | 0.9 | 0.34
Cacna1s (GeneID 12292) | no change with or without drug | -0.22 | -0.17
Tpbg (GeneID 21983) | no change with or without drug | -0.45 | -0.84
Nup188 (GeneID 227699) | low cell count with and without drug | -3.15 | -2.19
